Results are given in words; binding and its absence hold for the method and conditions named. Binding seen in cells or lysates may run through a third protein. These calls come from enrichment with a bait or labelling near it, and not all partners need be listed. Tags and fused reporters may be left off the sequences shown.
Columns and labels:
[1] = target: T1, PSKH1 with C-terminal FLAG tag and TurboID fusion (human) (UniProt P11801); experiment: proximity labelling; TurboID: PSKH1-FLAG-TurboID induced with doxycycline (100 ng/mL) overnight in HEL cells, biotin 500 uM for 10 min, Streptavidin capture, trypsin, mass spectrometry; against uninduced cells; parallel experiments with ionomycin
T1 sequence: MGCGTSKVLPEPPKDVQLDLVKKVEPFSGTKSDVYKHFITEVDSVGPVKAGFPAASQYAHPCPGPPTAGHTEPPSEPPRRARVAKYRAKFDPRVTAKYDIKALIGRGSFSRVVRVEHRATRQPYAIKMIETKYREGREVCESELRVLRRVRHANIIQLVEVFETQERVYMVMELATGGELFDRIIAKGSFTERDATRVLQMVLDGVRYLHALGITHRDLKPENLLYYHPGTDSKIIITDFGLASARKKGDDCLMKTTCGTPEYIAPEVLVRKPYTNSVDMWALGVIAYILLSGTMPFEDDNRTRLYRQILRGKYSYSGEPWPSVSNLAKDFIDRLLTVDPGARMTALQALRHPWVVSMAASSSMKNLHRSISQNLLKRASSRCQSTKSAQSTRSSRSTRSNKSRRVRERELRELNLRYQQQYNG

Protein sequences, listed by entry. Tags and fused reporters are not part of them. Residues count along the entry.
UniProt A6NIH7: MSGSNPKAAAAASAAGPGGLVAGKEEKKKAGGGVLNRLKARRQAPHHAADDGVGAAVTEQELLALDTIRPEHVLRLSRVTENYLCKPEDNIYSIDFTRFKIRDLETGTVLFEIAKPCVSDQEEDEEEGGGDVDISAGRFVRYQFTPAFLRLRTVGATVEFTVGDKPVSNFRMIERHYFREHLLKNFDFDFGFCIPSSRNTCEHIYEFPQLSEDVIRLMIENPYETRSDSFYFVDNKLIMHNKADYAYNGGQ
UniProt O43852, residues 20-315: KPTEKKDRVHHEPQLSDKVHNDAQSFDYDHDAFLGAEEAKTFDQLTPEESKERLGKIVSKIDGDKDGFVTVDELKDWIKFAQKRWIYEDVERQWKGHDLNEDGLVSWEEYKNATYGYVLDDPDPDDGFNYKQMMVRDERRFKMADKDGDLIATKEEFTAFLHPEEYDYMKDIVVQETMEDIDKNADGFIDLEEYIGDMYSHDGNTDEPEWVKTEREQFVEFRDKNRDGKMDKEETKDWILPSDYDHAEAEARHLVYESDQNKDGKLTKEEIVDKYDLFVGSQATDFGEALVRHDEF

[2] = target: T2, PSKH1 with C-terminal 3C protease-cleavable FLAG tag (human) (UniProt P11801); experiment: affinity purification with mass spectrometry; FLAG-IP of PSKH1 with C-terminal 3C-cleavable FLAG from HEK293T lysates on anti-FLAG resin, elution with 3C protease, trypsin, mass spectrometry
T2 sequence: T1 sequence

| Substance | binding [1] | binding [2] |
| --- | --- | --- |
| UNC119B, endogenous (from UniProt A6NIH7 1-251) | binds | – |
| HSP90 (human (endogenous in HEK293T)) | – | binds |
| Calumenin (from UniProt O43852 20-315) | – | binds |
